Some of the results follow.
Compound: Cc1cc(ccc1-c1ccccc1)C(=O)N1CCCN(CC1)C(=O)CCl [compound 10]
Test: probe-labelled cysteine peptide fold change vs DMSO (competition) (log2 fold change); higher = less target engagement (more negative = stronger competition)
Settings: THP-1, incubation time: 4 h
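Further: competitive profiling in live THP-1 cells: cysteine peptides tagged with an iodoacetamide desthiobiotin (IA-DTB) probe, intensity after compound treatment relative to DMSO-treated cells.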

Amino acid sequences for entries named in this document (tags omitted). A change or cut given only in a name is not applied to a line headed by its entry.
UniProt Q9NRW3: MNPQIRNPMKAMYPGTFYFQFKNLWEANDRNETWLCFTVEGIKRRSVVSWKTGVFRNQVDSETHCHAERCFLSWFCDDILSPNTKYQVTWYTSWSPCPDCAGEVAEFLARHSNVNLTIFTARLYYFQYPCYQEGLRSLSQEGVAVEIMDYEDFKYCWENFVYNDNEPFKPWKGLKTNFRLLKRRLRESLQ
UniProt O75179: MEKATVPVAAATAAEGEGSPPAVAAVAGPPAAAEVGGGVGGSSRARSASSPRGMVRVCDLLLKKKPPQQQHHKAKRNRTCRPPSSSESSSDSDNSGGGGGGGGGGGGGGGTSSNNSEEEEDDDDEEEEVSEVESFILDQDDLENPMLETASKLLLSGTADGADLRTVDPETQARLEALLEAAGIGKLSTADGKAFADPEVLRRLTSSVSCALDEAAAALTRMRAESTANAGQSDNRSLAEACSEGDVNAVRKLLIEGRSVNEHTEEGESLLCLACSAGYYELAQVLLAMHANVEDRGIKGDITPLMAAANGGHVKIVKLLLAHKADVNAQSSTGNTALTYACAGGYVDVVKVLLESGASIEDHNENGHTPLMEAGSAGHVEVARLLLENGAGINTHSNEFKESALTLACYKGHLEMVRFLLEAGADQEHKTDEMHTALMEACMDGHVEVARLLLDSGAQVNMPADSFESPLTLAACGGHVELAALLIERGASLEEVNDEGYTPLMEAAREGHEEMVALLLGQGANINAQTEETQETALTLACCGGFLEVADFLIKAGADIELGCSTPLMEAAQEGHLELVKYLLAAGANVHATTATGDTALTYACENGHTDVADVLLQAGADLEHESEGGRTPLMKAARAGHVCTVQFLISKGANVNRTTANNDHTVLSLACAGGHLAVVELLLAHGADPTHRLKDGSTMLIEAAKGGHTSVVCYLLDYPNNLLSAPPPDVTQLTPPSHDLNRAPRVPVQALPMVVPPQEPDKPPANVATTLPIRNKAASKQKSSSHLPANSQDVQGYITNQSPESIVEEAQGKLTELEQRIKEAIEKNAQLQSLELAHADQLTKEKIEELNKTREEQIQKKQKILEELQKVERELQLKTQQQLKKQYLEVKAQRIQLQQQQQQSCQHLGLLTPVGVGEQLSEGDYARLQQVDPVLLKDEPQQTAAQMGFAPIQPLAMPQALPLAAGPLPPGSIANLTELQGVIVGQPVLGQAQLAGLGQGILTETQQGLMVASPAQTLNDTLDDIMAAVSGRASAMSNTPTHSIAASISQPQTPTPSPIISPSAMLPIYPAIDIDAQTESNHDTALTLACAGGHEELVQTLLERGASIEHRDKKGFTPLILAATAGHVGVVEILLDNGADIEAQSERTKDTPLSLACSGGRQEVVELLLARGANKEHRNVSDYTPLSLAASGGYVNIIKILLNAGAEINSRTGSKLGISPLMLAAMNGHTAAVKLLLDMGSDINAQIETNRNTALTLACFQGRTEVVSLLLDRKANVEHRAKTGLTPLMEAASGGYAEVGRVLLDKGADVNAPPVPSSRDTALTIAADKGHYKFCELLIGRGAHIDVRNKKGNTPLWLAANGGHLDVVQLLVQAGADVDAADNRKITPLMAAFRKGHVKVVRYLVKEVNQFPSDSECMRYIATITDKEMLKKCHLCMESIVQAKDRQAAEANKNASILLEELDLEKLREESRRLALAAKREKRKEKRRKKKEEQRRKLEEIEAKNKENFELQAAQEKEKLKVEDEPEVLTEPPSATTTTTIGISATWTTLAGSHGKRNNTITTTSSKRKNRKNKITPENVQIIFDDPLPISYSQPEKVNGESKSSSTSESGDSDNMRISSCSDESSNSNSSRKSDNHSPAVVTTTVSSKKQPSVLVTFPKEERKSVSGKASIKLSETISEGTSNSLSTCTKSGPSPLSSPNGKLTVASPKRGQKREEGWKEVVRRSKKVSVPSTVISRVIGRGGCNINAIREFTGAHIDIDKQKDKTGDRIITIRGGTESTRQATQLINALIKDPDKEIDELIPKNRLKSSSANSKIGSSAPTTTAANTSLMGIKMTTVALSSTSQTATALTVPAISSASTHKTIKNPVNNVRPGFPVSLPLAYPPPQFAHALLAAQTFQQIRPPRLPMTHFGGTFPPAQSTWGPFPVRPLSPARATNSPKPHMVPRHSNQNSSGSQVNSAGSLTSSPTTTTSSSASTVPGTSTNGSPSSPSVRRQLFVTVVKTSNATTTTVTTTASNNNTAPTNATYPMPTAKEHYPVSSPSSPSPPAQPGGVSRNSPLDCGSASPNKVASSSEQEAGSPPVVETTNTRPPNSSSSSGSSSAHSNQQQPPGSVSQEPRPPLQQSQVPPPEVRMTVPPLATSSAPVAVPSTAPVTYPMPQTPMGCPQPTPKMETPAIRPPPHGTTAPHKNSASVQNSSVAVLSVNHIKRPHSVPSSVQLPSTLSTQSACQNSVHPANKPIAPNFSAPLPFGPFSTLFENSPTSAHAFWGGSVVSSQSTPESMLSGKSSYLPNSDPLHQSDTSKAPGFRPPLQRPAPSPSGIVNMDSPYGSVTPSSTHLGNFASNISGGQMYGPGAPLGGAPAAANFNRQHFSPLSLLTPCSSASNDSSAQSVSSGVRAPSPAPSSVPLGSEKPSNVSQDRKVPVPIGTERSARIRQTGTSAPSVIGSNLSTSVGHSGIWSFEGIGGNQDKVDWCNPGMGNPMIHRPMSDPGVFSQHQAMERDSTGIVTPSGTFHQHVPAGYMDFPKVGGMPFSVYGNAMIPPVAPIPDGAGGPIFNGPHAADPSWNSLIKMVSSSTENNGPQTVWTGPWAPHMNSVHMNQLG
UniProt P20073: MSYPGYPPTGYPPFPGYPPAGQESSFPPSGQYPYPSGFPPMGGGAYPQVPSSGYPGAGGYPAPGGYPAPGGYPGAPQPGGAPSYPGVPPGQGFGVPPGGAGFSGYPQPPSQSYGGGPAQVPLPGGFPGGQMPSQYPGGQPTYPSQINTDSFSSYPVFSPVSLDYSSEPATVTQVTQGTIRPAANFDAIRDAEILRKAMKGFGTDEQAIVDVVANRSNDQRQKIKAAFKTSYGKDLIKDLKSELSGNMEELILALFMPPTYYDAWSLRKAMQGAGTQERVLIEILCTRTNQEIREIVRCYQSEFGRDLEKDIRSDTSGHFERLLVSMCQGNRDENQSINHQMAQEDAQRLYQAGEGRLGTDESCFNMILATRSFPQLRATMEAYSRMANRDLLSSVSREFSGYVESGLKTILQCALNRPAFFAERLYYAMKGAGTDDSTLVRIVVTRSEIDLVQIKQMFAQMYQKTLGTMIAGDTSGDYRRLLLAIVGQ
UniProt Q96GX9: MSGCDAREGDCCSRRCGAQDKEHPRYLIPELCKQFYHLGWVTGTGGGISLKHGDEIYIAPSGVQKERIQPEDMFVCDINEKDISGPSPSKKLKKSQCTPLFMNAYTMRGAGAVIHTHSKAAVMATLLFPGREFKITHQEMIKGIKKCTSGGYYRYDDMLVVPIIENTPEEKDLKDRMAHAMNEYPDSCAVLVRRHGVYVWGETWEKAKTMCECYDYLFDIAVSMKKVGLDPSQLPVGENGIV
UniProt O94973, whole entry, looked up: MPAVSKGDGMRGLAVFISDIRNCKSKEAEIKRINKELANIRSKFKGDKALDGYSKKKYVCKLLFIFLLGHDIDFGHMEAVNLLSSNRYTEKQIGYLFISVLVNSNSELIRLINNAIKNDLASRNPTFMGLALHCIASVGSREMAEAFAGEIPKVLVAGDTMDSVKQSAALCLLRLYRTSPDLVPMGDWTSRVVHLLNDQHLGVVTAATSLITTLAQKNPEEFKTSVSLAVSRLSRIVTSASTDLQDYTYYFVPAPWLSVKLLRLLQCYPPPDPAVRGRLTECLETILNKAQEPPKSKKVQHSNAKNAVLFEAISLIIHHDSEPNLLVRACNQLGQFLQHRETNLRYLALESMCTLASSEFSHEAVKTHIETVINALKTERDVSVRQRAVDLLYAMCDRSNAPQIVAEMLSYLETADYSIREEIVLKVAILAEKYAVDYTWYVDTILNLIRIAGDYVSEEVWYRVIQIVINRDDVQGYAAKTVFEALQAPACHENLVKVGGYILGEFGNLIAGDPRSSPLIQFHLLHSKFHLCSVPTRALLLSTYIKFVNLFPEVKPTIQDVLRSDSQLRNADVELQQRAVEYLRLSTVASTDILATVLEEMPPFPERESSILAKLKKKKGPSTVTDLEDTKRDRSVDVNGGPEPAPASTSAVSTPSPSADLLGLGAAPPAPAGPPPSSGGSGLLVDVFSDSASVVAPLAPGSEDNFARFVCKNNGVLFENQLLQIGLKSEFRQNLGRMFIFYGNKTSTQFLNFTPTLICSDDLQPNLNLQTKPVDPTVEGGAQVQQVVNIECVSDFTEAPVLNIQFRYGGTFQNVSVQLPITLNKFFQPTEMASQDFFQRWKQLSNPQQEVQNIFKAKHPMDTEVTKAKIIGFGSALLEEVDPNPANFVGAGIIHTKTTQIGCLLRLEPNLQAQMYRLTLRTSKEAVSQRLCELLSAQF
UniProt P63010: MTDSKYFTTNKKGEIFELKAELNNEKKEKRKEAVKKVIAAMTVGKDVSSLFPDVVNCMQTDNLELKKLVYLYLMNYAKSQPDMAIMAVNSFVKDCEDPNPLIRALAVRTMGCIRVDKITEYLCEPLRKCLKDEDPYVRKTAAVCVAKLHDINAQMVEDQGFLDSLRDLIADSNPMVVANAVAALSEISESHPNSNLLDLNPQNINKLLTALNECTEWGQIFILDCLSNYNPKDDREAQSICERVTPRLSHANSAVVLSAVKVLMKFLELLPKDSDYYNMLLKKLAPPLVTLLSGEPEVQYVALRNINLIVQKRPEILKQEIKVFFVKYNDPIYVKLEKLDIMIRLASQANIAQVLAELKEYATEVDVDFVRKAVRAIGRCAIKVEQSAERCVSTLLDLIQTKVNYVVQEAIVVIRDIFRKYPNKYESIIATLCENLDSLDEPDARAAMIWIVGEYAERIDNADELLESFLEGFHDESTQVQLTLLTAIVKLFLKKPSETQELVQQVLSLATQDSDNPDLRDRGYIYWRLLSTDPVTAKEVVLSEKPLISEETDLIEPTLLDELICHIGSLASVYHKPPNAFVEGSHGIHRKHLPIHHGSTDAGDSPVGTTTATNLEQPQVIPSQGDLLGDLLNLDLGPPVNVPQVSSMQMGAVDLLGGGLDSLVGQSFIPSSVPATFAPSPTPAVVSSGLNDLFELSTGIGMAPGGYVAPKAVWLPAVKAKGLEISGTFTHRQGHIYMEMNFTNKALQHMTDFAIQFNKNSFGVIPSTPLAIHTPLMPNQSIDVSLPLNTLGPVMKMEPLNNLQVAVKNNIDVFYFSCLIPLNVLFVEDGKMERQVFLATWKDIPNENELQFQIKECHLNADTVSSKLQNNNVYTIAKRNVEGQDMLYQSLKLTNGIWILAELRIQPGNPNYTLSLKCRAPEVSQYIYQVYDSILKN
UniProt Q96NW4, whole entry, looked up: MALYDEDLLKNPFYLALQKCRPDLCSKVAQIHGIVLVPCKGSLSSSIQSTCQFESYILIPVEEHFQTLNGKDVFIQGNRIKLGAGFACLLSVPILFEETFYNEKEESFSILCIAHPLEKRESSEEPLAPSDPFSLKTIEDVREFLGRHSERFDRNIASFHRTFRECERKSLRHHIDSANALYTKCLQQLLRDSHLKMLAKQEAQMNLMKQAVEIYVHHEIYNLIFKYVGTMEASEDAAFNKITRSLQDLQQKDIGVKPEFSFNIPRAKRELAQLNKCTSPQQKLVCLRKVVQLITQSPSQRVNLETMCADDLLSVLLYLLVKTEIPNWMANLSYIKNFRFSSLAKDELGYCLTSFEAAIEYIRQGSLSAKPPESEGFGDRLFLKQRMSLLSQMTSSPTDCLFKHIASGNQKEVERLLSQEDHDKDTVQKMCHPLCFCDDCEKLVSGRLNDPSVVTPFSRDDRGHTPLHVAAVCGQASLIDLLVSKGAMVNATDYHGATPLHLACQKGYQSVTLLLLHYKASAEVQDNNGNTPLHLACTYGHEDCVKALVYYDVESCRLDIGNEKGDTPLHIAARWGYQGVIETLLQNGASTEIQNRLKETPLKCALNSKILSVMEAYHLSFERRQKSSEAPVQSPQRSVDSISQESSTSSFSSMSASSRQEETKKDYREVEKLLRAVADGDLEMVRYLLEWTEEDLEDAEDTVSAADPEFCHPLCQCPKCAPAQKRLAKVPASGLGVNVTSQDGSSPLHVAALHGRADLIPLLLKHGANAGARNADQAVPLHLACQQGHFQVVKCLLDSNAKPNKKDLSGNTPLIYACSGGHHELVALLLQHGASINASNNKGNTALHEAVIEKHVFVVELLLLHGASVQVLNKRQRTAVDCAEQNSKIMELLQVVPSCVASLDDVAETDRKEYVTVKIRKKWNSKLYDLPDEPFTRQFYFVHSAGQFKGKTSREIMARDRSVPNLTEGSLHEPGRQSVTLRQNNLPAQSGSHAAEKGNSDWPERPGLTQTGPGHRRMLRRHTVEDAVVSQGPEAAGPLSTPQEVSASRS

Target | probe-labelled cysteine peptide fold change (10 µM) | probe-labelled cysteine peptide fold change (50 µM)
APOBR_Q0VD83_149_AGSGACQDR (UniProt Q0VD83) | -0.37 | -0.408
APEH_P13798_152_HGPVYEDDCFGCLSWSHSETHLLYVAEK (UniProt P13798) | 0.174 | 0.179
AP3M2_P53677_236_LLDDVSFHPCVR (UniProt P53677) | 0.0842 | 0.131
APOBEC3C_Q9NRW3_70+76_CFLSWFCDDILSPNTK (UniProt Q9NRW3) | -0.0487 | -0.237
ANTXR1_Q9H6X2_257_VLCSFK (UniProt Q9H6X2) | -0.0829 | -0.125
ANKRD17_O75179_409_ESALTLACYK (UniProt O75179) | 0.231 | 0.0632
ANKRD44_Q8N8A2_731_GIMTGHEECVQMLLEQEVSILCK (UniProt Q8N8A2) | 0.0528 | -0.279
ANKRD17_O75179_644_AGHVCTVQFLISK (UniProt O75179) | -0.21 | -0.425
ANKHD1_Q8IWZ3_643_ATANNDHTVVSLACAGGHLAVVELLLAHGADPTHR (UniProt Q8IWZ3) | 0.218 | 0.0558
ANLN_Q9NQW6_210_LANLAATICSWEDDVNHSFAK (UniProt Q9NQW6) | 0.414 | 0.305
ANKLE1_Q8NAG6_124_DQDGLRPLDLALQQGHLECAR (UniProt Q8NAG6) | -0.0534 | 0.189
ANLN_Q9NQW6_309_SCEGQNPELLPK (UniProt Q9NQW6) | -0.285 | -0.113
ANKRD28_O15084_201_LLVSHGAEVTCK (UniProt O15084) | -0.0595 | 0.174
ANKIB1_Q9P2G1_640_ETEGGCPDTTFIEDAVHVLLK (UniProt Q9P2G1) | -0.331 | -0.322
APOH_P02749_345_TDASDVKPC (UniProt P02749) | -0.931 | -0.957
ANKLE1_Q8NAG6_29_CGADPNLVLEDGAAAVHLAAGAR (UniProt Q8NAG6) | -0.0884 | 0.239
APEH_P13798_368_QLGENFSGIYCSLLPLGCWSADSQR (UniProt P13798) | -0.29 | -0.435
AP2A1_O95782_970_HLCELLAQQF (UniProt O95782) | 0.0634 | 0.18
APOBEC3G_Q9HC16_243_GFLCNQAPHK (UniProt Q9HC16) | 0.0129 | 0.0615
AP4M1_O00189_235_IGLTEEFCVGK (UniProt O00189) | -0.0533 | -0.00473
APOBEC3C_Q9NRW3_65_NQVDSETHCHAER (UniProt Q9NRW3) | 0.0644 | -0.16

Target | probe-labelled cysteine peptide fold change (10 µM) | probe-labelled cysteine peptide fold change (50 µM)
AP2A1_O95782_225_TCVSLAVSR (UniProt O95782) | 0.0673 | 0.11
ANKZF1_Q9H8Y5_180_CVLGPHQDPPEEAELLLQNLQSR (UniProt Q9H8Y5) | -0.0318 | -0.122
APAF1_O14727_258_AFDSQCQILLTTR (UniProt O14727) | 0.213 | 0.0876
APAF1_O14727_538_DCAVSENFQEFLSLNGHLLGR (UniProt O14727) | 0.0135 | -0.00605
ANXA7_P20073_413_TILQCALNRPAFFAER (UniProt P20073) | 0.0808 | 0.0931
APMAP_Q9HDC9_149_TRDDEPVCGR (UniProt Q9HDC9) | 0.0268 | 0.291
ANKLE2_Q86XL3_702_NGLCHPLNHSR (UniProt Q86XL3) | 0.00413 | -0.333
AP5Z1_O43299_546_LAPLHQLLQPMAGCAR (UniProt O43299) | 0.0763 | -0.0973
AP5M1_Q9H0R1_444_ILDYTLTGCYADQHSVQVFASGKPK (UniProt Q9H0R1) | -0.0225 | 0.148
APBB1IP_Q7Z5R6_381_YKAPTDYCFVLK (UniProt Q7Z5R6) | 0.0859 | -0.339
AP1B1_Q10567_866_DCPLNAEAASSK (UniProt Q10567) | -0.0676 | -0.0476
ANLN_Q9NQW6_1037_INLANCTSR (UniProt Q9NQW6) | -0.121 | -0.171
ANXA2_P07355_262_EVKGDLENAFLNLVQCIQNK (UniProt P07355) | -0.0705 | -0.366
ANKRD17_O75179_242_SLAEACSEGDVNAVR (UniProt O75179) | 0.0211 | 0.0642
ANKRD44_Q8N8A2_921_CALLILDK (UniProt Q8N8A2) | -0.127 | -0.402
ANKRD28_O15084_472_GCTPLHYAATSDTDGK (UniProt O15084) | 0.0981 | -0.0308
ANXA7_P20073_327_LLVSMCQGNRDENQSINHQMAQEDAQR (UniProt P20073) | -0.0706 | -0.21
AP3D1_O14617_574_ASCILQLVK (UniProt O14617) | -0.178 | -0.161
APIP_Q96GX9_97_SQCTPLFMNAYTMR (UniProt Q96GX9) | -0.0114 | -0.156
ANXA6_P08133_59_QRQEVCQSYK (UniProt P08133) | 0.0674 | 0.156
ANKRD50_Q9ULJ7_744_GAEVDHCDK (UniProt Q9ULJ7) | 0.0279 | 0.216

Target | probe-labelled cysteine peptide fold change (10 µM) | probe-labelled cysteine peptide fold change (50 µM)
AP2A2_O94973_282_LTECLETILNK (UniProt O94973) | -0.294 | -0.0771
APAF1_O14727_1083+1091_DFVCHQGTVLSCDISHDATK (UniProt O14727) | -0.0364 | -0.18
ANKRD44_Q8N8A2_854_TPLHAAAFADHVECLQLLLR (UniProt Q8N8A2) | -0.0323 | -0.112
AP5B1_Q2VPB7_420_LHLLCLLCAEEEEEEK (UniProt Q2VPB7) | 0.0845 | 0.0577
AP3D1_O14617_39_YISQCIDEIKQELK (UniProt O14617) | 0.167 | -0.0302
ANKS1A_Q92625_211_MLLNAHPNLLSCNTK (UniProt Q92625) | 0.111 | -0.228
ANKRD52_Q8NB46_733+749_GAVTGCEDCLAALLDHDAFVLCR (UniProt Q8NB46) | -0.196 | -0.826
APEH_P13798_149+152_HGPVYEDDCFGCLSWSHSETHLLYVAEK (UniProt P13798) | -0.00931 | -0.199
API5_Q9BZZ5_297_LLAEMSSFCGDMEK (UniProt Q9BZZ5) | 0.176 | 0.385
AP2B1_P63010_241_EAQSICER (UniProt P63010) | -0.254 | 0.00355
AOAH_P28039_329_NHCNHR (UniProt P28039) | -0.145 | 0.0168
ANKRD17_O75179_1260_NTALTLACFQGR (UniProt O75179) | 0.0822 | 0.0585
APIP_Q96GX9_188_MAHAMNEYPDSCAVLVR (UniProt Q96GX9) | 0.165 | 0.102
AP2A1_O95782_215_VVHLLNDQHMGVVTAAVSLITCLCK (UniProt O95782) | 0.000516 | 0.00546
ANXA7_P20073_413_TILQCALNR (UniProt P20073) | 0.206 | 0.459
APAF1_O14727_115_TVLCEGGVPQRPVVFVTR (UniProt O14727) | -0.147 | -0.00415
ANKRD44_Q8N8A2_810_KFIGNPFTPLHCAIINDHGNCASLLLGAIDSSIVSCRDDK (UniProt Q8N8A2) | -0.251 | -0.692
ANKRD46_Q86W74_61_GNVDICQLLHK (UniProt Q86W74) | 0.00597 | -0.0516
ANKRD17_O75179_210_LTSSVSCALDEAAAALTR (UniProt O75179) | 0.213 | 0.198
AP3D1_O14617_1133_CSDSTLLSNLLEEMK (UniProt O14617) | 0.0262 | 0.177
ANKRD28_O15084_898_NTALHLACSK (UniProt O15084) | 0.179 | -0.00843

Target | probe-labelled cysteine peptide fold change (10 µM) | probe-labelled cysteine peptide fold change (50 µM)
ANKRD27_Q96NW4_899_IMELLQVVPSCVASLDDVAETDRK (UniProt Q96NW4) | -0.178 | -0.611
ANKRD27_Q96NW4_720_CAPAQK (UniProt Q96NW4) | -0.195 | -0.956
AP2A1_O95782_213_VVHLLNDQHMGVVTAAVSLITCLCK (UniProt O95782) | -0.147 | -0.256
ANKRD17_O75179_564_AGADIELGCSTPLMEAAQEGHLELVK (UniProt O75179) | 0.0101 | -0.0606
ANKRD50_Q9ULJ7_113_QALAFHFCK (UniProt Q9ULJ7) | 1.31 | 1.7
APEX1_P27695_208_KPLVLCGDLNVAHEEIDLRNPK (UniProt P27695) | -0.323 | -0.291
AP2B1_P63010_391_CVSTLLDLIQTK (UniProt P63010) | 0.0285 | 0.291
ANO6_Q4KMQ2_261_RQSEDPSCPNER (UniProt Q4KMQ2) | -0.211 | -0.0905
AP1B1_Q10567_921_IQPGNPSCTDLELSLK (UniProt Q10567) | 0.155 | -0.0625
AP2A1_O95782_129_NPTFMCLALHCIANVGSR (UniProt O95782) | 0.052 | 0.122
ANKRD28_O15084_838_TPLHAAAFTDHVECLQLLLSHNAQVNSVDSTGK (UniProt O15084) | -0.0345 | -0.511
ANKRD52_Q8NB46_1001_NGLASVVQALLSHGATVLAVDEEGHTPALACAPNK (UniProt Q8NB46) | -0.348 | -0.552
APAF1_O14727_8_NCLLQHR (UniProt O14727) | 0.0229 | -0.322
AP3M1_Q9Y2T2_236_LLDDVSFHPCIR (UniProt Q9Y2T2) | 0.245 | 0.0204
AP2A2_O94973_903_TTQIGCLLR (UniProt O94973) | 0.00156 | 0.0573
ANKRD46_Q86W74_85_FGADLLATDYQGNTALHLCGHVDTIQFLVSNGLK (UniProt Q86W74) | 0.281 | 0.317
AP2B1_P63010_241_DDREAQSICER (UniProt P63010) | -0.08 | 0.0189
APAF1_O14727_749_NTMFGHTNSVNHCR (UniProt O14727) | 0.242 | 0.00807
AP2A1_O95782_283_LVECLETVLNK (UniProt O95782) | -0.0236 | 0.0113
ANKRD44_Q8N8A2_420_TCLHAAAAGGNVECIK (UniProt Q8N8A2) | -0.0237 | -0.154

Some of the entries above, reformatted:
ANKRD27_Q96NW4_899_IMELLQVVPSCVASLDDVAETDRK (UniProt Q96NW4)
  probe-labelled cysteine peptide fold change (10 µM) = -0.178; probe-labelled cysteine peptide fold change (50 µM) = -0.611
ANKRD27_Q96NW4_720_CAPAQK (UniProt Q96NW4)
  probe-labelled cysteine peptide fold change (10 µM) = -0.195; probe-labelled cysteine peptide fold change (50 µM) = -0.956
AP2A1_O95782_213_VVHLLNDQHMGVVTAAVSLITCLCK (UniProt O95782)
  probe-labelled cysteine peptide fold change (10 µM) = -0.147; probe-labelled cysteine peptide fold change (50 µM) = -0.256
